# Test results reported in the supplement of paper PMC3334620.
# In all, about 33,000 sequences were measured (“E-score (-0.5 to 0.5)”: median about -0.0014, highest 2% from about 0.25 on). This is one part of the list.
# Molecular target: T1, Cad1 (UniProt P24813)
# T1 sequence: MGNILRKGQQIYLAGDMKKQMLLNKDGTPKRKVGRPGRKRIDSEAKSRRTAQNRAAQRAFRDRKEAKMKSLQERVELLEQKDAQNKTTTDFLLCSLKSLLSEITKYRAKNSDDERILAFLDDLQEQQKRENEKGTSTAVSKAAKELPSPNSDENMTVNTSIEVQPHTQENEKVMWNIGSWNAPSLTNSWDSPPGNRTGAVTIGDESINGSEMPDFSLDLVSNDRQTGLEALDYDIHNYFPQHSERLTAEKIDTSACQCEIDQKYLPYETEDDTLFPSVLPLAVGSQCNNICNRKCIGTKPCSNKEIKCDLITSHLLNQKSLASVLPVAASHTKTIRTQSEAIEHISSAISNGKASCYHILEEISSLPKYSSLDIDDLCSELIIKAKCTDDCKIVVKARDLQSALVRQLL
# Assay: PBM E-score (8-mer binding enrichment) (E-score (-0.5 to 0.5)); higher = stronger / more preferred TF binding
# Conditions: protein concentration: 100 nM; construct: GST-full length
# Outline: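 For each ungapped eight-base word taken together with its reverse complement, the Universal PBM Analysis Suite assigned an E-score. Binding data came from GST-tagged yeast transcription factors, applied at about 100-200 nM, on universal all-10-mer Agilent arrays made double-stranded by primer extension. Fluorescent anti-GST marked bound protein, and scans were normalised with masliner.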
row,Sequence,PBM E-score
1,CAGGGGCA,-0.0406
2,CTCCTTCA,-0.151
3,AGGGATAT,0.0686
4,CTCATGAA,0.0604
5,AGTTTGTG,-0.0199
6,ATAAACAA,0.261
7,GCGTAACA,0.151
8,AATTTGCA,0.0123
9,GTCAAACA,-0.0631
10,CCCATGGC,-0.202
11,GTCCCGTA,-0.203
12,ATCCACGG,0.0648
13,CCGTATCC,0.0238
14,CATGTGCC,-0.0619
15,AATTTAAC,0.124
16,CACACTAC,-0.00395
17,AAGATGTC,-0.188
18,AATCGTGT,0.039
19,AAGTTTGA,0.0388
20,CACGAGCC,-0.209
21,ACGTCCGA,-0.0154
22,AGTCTTAC,-0.112
23,AGCTTGCA,0.177
24,AACTCGGA,-0.0153
25,AGACGTCA,-0.096

row,Sequence,PBM E-score
1,CTTTCCAA,-0.0504
2,AAGCACAT,0.254
3,CGTATTCC,0.0639
4,GCAGACCC,-0.294
5,CATGGTGG,-0.17
6,GATCCGAC,-0.0611
7,ACTCGGCT,-0.0579
8,CGGCAGCC,-0.0555
9,AGTCCATA,-0.0182
10,AATCTTAC,0.15
11,CTTGCGGC,0.0936
12,CTCCAGGC,-0.0803
13,ATGCGACA,0.106
14,ACACCCTC,-0.231
15,GGCCGGCC,-0.0682
16,CTTCTGCA,-0.0629
17,GCGAACGA,0.00243
18,AATCCCGG,-0.0443
19,GGCAGCAA,-0.0553
20,ACAATTTA,0.0347
21,GAATCTGA,-0.178
22,TCACACAA,-0.0186
23,AACGCACG,0.201
24,CCGAACTC,0.00655
25,AGTGCAGG,-0.0292

# Fetched one by one from the list above (3):
row,Sequence,PBM E-score
14,ACACCCTC,-0.231
8,CGGCAGCC,-0.0555
10,CCCATGGC,-0.202

# Next part:

row,Sequence,PBM E-score
1,GGCTGTCA,-0.11
2,ACAGGGAG,-0.139
3,ACTCTCAT,0.0485
4,AGCGGAAA,0.139
5,CCATGTAA,0.0299
6,AGATACCA,0.221
7,TAAGGCAA,-0.0649
8,ATACCTTA,0.0486
9,AGTCATTG,-0.0467
10,CCACGGCA,-0.0783
11,TCAGGCCA,-0.00554
12,AGTGTTAG,0.144
13,AGAGATTA,0.156
14,CATAGGAG,-0.108
15,ACTAACCA,0.111
16,GCGCCTAA,0.139
17,ACCCGACG,-0.039
18,AAATCCTA,0.0288
19,AGAACCGG,0.0207
20,ACGCCTCC,-0.214
21,ATCCCCAG,-0.15
22,CACCGAAA,0.12
23,CTCACAGC,-0.0648
24,ATCTGCGG,0.145
25,ACCAATTG,0.165

# An excerpt of these results, bar-delimited.
row | Sequence | PBM E-score
8 | ATACCTTA | 0.0486
9 | AGTCATTG | -0.0467
12 | AGTGTTAG | 0.144
13 | AGAGATTA | 0.156
15 | ACTAACCA | 0.111
23 | CTCACAGC | -0.0648

# Later entries:

row,Sequence,PBM E-score
1,ATCTGAAT,0.0633
2,CCCGGCGC,-0.212
3,CCGTTGCC,-0.137
4,AGGGGGAG,-0.418
5,AGCCGTTG,0.101
6,ACTGAAGA,0.00909
7,ACAGAATA,0.167
8,GAATACAC,-0.034
9,GCTGTTCA,0.094
10,AGGTTACA,-0.0399
11,GCAAGTGA,0.116
12,TAGGACAA,0.0366
13,GCCACCTA,-0.167
14,AATCCAAA,0.188
15,CCCGTGGC,-0.2
16,AATTCACG,-0.0495
17,GTGCAGCA,-0.141
18,CATGGGCA,-0.0527
19,GTACCCCA,-0.0917
20,CTACGTCC,-0.163
21,ACAGGGCT,-0.168
22,GGGCTTAC,0.0166
23,AAGGTGTG,0.0581
24,CCCCTCAA,-0.269
25,ACGTAGCC,-0.235

row,Sequence,PBM E-score
1,ATTTAAGA,0.0745
2,ACATTACC,0.0384
3,ATTAGCCA,0.0977
4,ACCTCGAA,-0.0571
5,ACAGGAAA,0.155
6,ACATGATA,0.203
7,CCGGGGAC,-0.235
8,GTCTATCA,0.074
9,CATCCCTA,0.0256
10,CCTACTGC,-0.208
11,GTCTACAC,0.0321
12,ACCGGAAG,0.192
13,AGAGCTAT,-0.254
14,AATATCCG,0.265
15,GTCAGTAA,0.166
16,AACTAACA,0.0943
17,CGAGCGAC,0.0243
18,AAGCATCT,-0.00694
19,AGTAACCA,-0.0106
20,AACCACTC,-0.00576
21,ACAATTGT,0.133
22,ACCTATGA,-0.202
23,CCCTATCA,-0.129
24,AACTTTTC,0.0431
25,AACTGGGC,-0.128

row,Sequence,PBM E-score
1,AGGGCCGG,-0.261
2,AAGTAGGG,-0.025
3,CAACCTAC,-0.00641
4,AACATCCC,-0.0301
5,GGGACGCA,-0.149
6,AATTGACC,0.135
7,CGCACTAG,-0.0891
8,CTATCCCC,-0.263
9,CAGTATTA,0.15
10,ACGAGAAT,0.167
11,AAACTGCA,-0.0777
12,CGCTCTAG,-0.307
13,CAGGACGA,-0.0504
14,AGGTTCCC,-0.216
15,AAGTCGGT,-0.0478
16,GCGCTAAA,0.0685
17,GTTCGTTA,0.176
18,CGATTTAG,0.17
19,GGCACTAC,-0.18
20,GAGTCGCC,-0.308
21,ACTATTCC,0.196
22,ATGTGCGG,-0.00079
23,GGTACTGA,-0.173
24,CGGTTGAG,0.0874
25,GGCGTTGA,-0.0438

row,Sequence,PBM E-score
1,CAACACAG,0.165
2,GTTACTGA,0.086
3,GGCCGAGA,-0.0552
4,TGCTGGAA,0.104
5,ACCTTGCC,-0.149
6,ACGCCAAC,-0.081
7,AGAACACG,0.0405
8,AACGCGTA,0.00524
9,CGCGTTTC,-0.129
10,AGCGGTGC,-0.105
11,GATATTAC,0.293
12,AGGTGTAG,-0.128
13,CATGCAGA,0.115
14,AATCGTAT,0.17
15,AGCGGCAC,-0.0682
16,CTAGGCTA,-0.119
17,AAATATTC,0.249
18,GGGTAACC,-0.147
19,CGAGTAAA,0.126
20,AAATAGAA,-0.0638
21,GTCTGGGA,-0.0272
22,CCCTTGGC,-0.249
23,AAAAGCTG,-0.116
24,ACAAACAT,0.145
25,CGAACGGA,0.0674

row,Sequence,PBM E-score
1,AATAATGT,0.155
2,CACATGAC,-0.0022
3,ATTCAGTA,0.0848
4,ACACGGGT,-0.018
5,ATGTCTTA,0.0553
6,CCAGCTAA,-0.0477
7,CCAGAGTC,-0.0683
8,GTAACGCA,0.0889
9,GACCGGCA,-0.123
10,GTGATGAA,0.0512
11,ACCTACAC,-0.134
12,GTAATGCA,-0.0933
13,TCCCAAGA,0.0234
14,GACCCGGA,-0.0615
15,CCAAGTGC,-0.229
16,GGAATCAA,0.127
17,ACACGCCC,-0.0578
18,GACATGGC,-0.116
19,CATACCCG,-0.0972
20,GAGTACAA,0.0249
21,CCCGAGCA,-0.0974
22,CGGACAAC,0.216
23,ATAGTGAA,0.117
24,CCGCAAAC,0.156
25,TACCCAAA,0.00386

row,Sequence,PBM E-score
1,GGGGTGAC,-0.274
2,CTGAGTTC,0.0925
3,CTCACTCC,-0.15
4,CTAAGTCC,-0.247
5,GCACGCGA,0.0766
6,ACGAGGTA,0.0795
7,AAATATTA,0.298
8,CCGTCGAA,0.1
9,ATCAATCC,-0.0665
10,ATAGTCCA,0.117
11,AGCATCAG,-0.0302
12,CCGATTGC,0.25
13,CATATTTC,0.0121
14,CGTTCCCA,-0.167
15,CAACAATG,0.14
16,CCCCATAG,-0.102
17,GTGGACAC,0.00261
18,CCACCGAG,-0.072
19,GCGCGAGC,0.0306
